Test results taken from patent publication US20260200984A1, “PEPTIDE FOR CARTILAGE REGENERATION, AND USES THEREOF” (CAREGEN CO., LTD., priority 2022, published 2026).
Not every detail of the peptide structures is certain; ends, links or a residue may be inferred. Where no end group is shown, it is not given here.

Columns and labels:
[1] = test system: SOX5, SOX6, and SOX9 in AD-MSC cells; assay: Western blot of ECM regulatory factors SOX5, SOX6, SOX9 in AD-MSC cells; assay type: cell-based, human; conditions: different concentrations, 3, 7 and 14 days, FIG. 9, FIG. 10
SOX9 in AD-MSC cells = assay: mRNA expression of ECM regulatory factor SOX9 (PCR) in AD-MSC cells; assay type: cell-based, human; conditions: different concentrations, 3, 7 and 14 days, FIG. 7, FIG. 8
[2] = test system: ECM components COL2A1, COMP, COL11A, PCP, ACAN in AD-MSC cells; assay: mRNA expression of ECM components (PCR) in AD-MSC cells; assay type: cell-based, human; conditions: different concentrations, 3, 7 and 14 days, FIG. 5, FIG. 6
COL2A1 in AD-MSC cells = assay: Western blot of COL2A1 in AD-MSC cells; assay type: cell-based, human; conditions: different concentrations, 3, 7 and 14 days, FIG. 11, FIG. 12
[3] = test system: human adipose-derived mesenchymal stem cells (AD-MSC); assay: Glycosaminoglycan production, Alcian blue staining of AD-MSC cells; assay type: cell-based; conditions: different concentrations, 14 days, FIG. 3, FIG. 4

| Sequence | SOX5 expression (Western blot) [1] | SOX6 expression (Western blot) [1] | SOX9 expression (Western blot) [1] | SOX9 mRNA expression (SOX9 in AD-MSC cells) | ACAN mRNA expression [2] | COL2A1 mRNA expression [2] | COL 11A mRNA expression [2] | COMP mRNA expression [2] | PCP mRNA expression [2] | COL2A1 expression (Western blot) (COL2A1 in AD-MSC cells) | production of glycosaminoglycan [3] |
| --- | --- | --- | --- | --- | --- | --- | --- | --- | --- | --- | --- |
| QSSLRALR [Peptide-2, QSSLRALR] | increased the expression | increased the expression | increased the expression | promoted the production of SOX9 | induced the production | induced the production | induced the production | induced the production | induced the production | increased the expression of COL2A1 | increasing the production of glycosaminoglycan |
| SHIAGGLSFHSTV [Peptide-1, SHIAGGLSFHSTV] | increased the expression | increased the expression | increased the expression | promoted the production of SOX9 | induced the production | induced the production | induced the production | induced the production | induced the production | increased the expression of COL2A1 | increasing the production of glycosaminoglycan |
